Measured values: PubChem BioAssay AID540256 (National Center for Advancing Translational Sciences (NCATS), 2011)
The whole screen tested about 300,000 compounds, of which about 3,700 (1.2%) were called active. Inconclusive results, whose numbers are uncertain, are shown with a selection of clear calls. Calls come from the whole dose curve; tested in HEK293 cells. Potencies of inconclusive entries are doubtful fits and often do not repeat.

Test: qHTS for Inhibitors of binding or entry into cells for Lassa Virus; note: nearly all actives have a fitted effect of over 50% in size
Conditions: Lassa virus pseudotype entry inhibition, cell reporter; activity change, negative = inhibition: at 37.9 µM (top of the series) unless noted
% is set by controls: 0 for no effect and ±100 for the full control effect; potency is the fitted concentration of half-maximal effect.

Row | Compound | Potency | activity change, negative = inhibition
1 | Cc1cc(C)cc(C(=O)NC(=S)Nc2cccnc2)c1 | inconclusive: 6.31 µM [inhibitor, partial curve, poor fit] | –
2 | Cc1ccc(Nc2cc(C)nc(NCc3ccccc3)n2)cc1 | active: 25.9 µM | –
3 | CCOc1ccc(CNC(=O)c2cc3cc(S(=O)(=O)N4CCCCC4)ccc3n2C)cc1 | inconclusive: 28.2 µM [inhibitor, partial curve, poor fit] | –
4 | Cc1ccc(S(=O)(=O)N2CCOCC2)cc1NC(=O)COc1cccc(-n2cnnn2)c1 | – | inactive: 10.6%
5 | CCN(CC)CC(O)c1ccc(C2CCCC2)cc1 (stereo not given) | inconclusive: 25.9 µM [inhibitor, single point] | –
6 | CC(C)(C)C(=O)NC(=S)NNC(=O)c1ccc(Cl)cc1Cl | inconclusive: 25.1 µM [inhibitor, single point] | –
7 | CCOC(=O)Nc1sc2c(c1C#N)CCC(C)C2 (stereo not given) | – | inactive: 10.3%
8 | CCOc1cc(/C=N/NC(=O)COc2ccccc2C)ccc1OC(=O)c1cccs1 | inconclusive: 16.4 µM [inhibitor, partial curve] | –
9 | O=C(CSCc1ccc([N+](=O)[O-])cc1)NC1CCCCCC1 | – | inactive: 14.4% [at 46.1 µM]
10 | O=C(CC(c1ccccc1)c1ccco1)Nc1nccs1 (stereo not given) | – | inactive: -7.24%
11 | Cn1cccc1/C=N/n1c(-c2ccc(Cl)cc2)n[nH]c1=S | inconclusive: 35.5 µM [inhibitor, single point] | –
12 | COc1cccc(NC(=O)N2CCN(c3cccc(C)c3C)CC2)c1 | – | inactive: 6.83%
13 | COc1ccc(-c2nc(S(=O)(=O)c3ccccc3)c(N3CCC(C)CC3)o2)cc1 | inconclusive: 5.62 µM [inhibitor, single point] | –
14 | CN1C(=O)c2ccccc2Sc2ccc(NC(=O)N3CCN(c4ccc(F)cc4)CC3)cc21 | – | inactive: -19.4% [at 46.1 µM]
15 | COc1ccc(/C=N/Nc2nncc3ccccc23)c(OC)c1 | inconclusive: 15.8 µM [inhibitor, single point] | –
16 | CCOC(=O)c1c(CSc2ccccc2)n(C)c2cc(Br)c(O)c(CN(C)C)c12 | inconclusive: 12.6 µM [inhibitor, partial curve, poor fit] | –
17 | C=CCN(C(=O)CCc1ccccc1OC)c1nc(-c2ccc(S(C)(=O)=O)cc2)cs1 | inconclusive: 3.98 µM [inhibitor, full curve] | –
18 | O=C(/C=C/Nc1ccccc1)c1ccccc1 | inconclusive: 0.891 µM [activator, partial curve, poor fit] | –
19 | CCCCC(CC(O)COCC(C)C)C(=O)NN (stereo not given) | inconclusive: 12.6 µM [activator, partial curve, poor fit] | –
20 | CCc1ccc(NC(=O)CSc2nc3c(sc4ccccc43)c(=O)n2CCCOC)cc1 | – | inactive: 0.861% [at 46.1 µM]

2 compounds picked at random from those above:
Row | Compound | Potency | activity change, negative = inhibition
8 | CCOc1cc(/C=N/NC(=O)COc2ccccc2C)ccc1OC(=O)c1cccs1 | inconclusive: 16.4 µM [inhibitor, partial curve] | –
3 | CCOc1ccc(CNC(=O)c2cc3cc(S(=O)(=O)N4CCCCC4)ccc3n2C)cc1 | inconclusive: 28.2 µM [inhibitor, partial curve, poor fit] | –
